The source of these data is PubChem BioAssay AID493027 (The Scripps Research Institute Molecular Screening Center, 2011).

Sequences of proteins named here, by UniProt entry; tags and fusion partners are left off. A change or cut given only in a name is not applied to a line headed by its entry.
UniProt O60240: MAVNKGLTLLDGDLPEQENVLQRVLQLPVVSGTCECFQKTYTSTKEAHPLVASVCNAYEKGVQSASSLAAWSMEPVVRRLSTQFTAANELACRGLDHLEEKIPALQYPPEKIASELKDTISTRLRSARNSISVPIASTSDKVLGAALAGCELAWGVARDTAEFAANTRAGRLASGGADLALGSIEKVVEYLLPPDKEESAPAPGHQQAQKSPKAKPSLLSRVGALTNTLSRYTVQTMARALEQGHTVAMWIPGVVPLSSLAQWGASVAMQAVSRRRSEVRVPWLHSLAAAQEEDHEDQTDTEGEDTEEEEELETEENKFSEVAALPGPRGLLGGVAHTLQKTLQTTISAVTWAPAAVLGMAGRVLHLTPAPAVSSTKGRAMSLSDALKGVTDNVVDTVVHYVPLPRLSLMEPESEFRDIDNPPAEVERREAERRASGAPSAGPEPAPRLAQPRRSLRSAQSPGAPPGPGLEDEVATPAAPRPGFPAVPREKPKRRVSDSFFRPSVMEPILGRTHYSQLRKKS
UniProt Q8WTS1: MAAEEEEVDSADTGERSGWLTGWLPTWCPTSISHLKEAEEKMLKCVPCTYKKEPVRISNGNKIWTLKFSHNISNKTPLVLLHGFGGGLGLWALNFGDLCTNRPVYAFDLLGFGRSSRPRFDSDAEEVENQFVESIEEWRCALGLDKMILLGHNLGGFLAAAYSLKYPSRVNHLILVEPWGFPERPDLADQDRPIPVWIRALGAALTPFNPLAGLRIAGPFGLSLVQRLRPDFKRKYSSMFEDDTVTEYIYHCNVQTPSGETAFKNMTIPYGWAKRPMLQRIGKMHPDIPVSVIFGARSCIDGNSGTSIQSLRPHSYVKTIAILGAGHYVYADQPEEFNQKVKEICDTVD

Structures are written as SMILES. Several values for one entry are separate records, joined by “and”; a condition that tells them apart may be missing. Equal entries are not always repeated. Hit rate of the full screen: of about 2,000 compounds, about 45 (2%) were called active.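 The calls were made as follows: active = inhibition above the screen-wide mean inhibition plus 3 SD (cut at about 44% in these data); inactive = the rest.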 This is one part of the list. Where a SMILES comes first, the peptide text is derived from it.

In the test the target is Perilipin-1 (Homo sapiens) + 1-acylglycerol-3-phosphate O-acyltransferase ABHD5 (Homo sapiens) (UniProt O60240+Q8WTS1). As to the kind of experiment: ABHD5-PLIN1 interaction inhibitors, pilot screen, cell lysate, split luciferase complementation, luminescence, NIH validation set (AID 493027).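 Also: 0% = DMSO wells with the 100% control not disclosed.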 The settings on record: split G. princeps luciferase complementation, 4 h, at 7.9 µM, active compounds read high.
In the case of `CC(C)[C@@]1(NC(=O)[C@@H]2C[C@@H]3c4cccc5[nH]cc(c45)C[C@H]3N(C)C2)O[C@@]2(O)[C@@H]3CCCN3C(=O)[C@H](Cc3ccccc3)N2C1=O`, the inhibition (as a rule, the change of the read-out against control, counted positive when it falls) was inactive: 2.77%.
The figure for `CCOc1ccc(C2C(C#N)=C(N)Oc3c2c(=O)oc2ccccc32)cc1` (stereo not given) is inactive: 18%; for `CC(C)CC12CN3CCN(CC(C3)C1O)C2` (stereo not given) it is inactive: -1.84%; for `CC12CCC3C(CC=C4CC5(CCC43C)OCCO5)C1CCC2=O` (stereo not given) it is inactive: 1.83%.
Next, `C[N+]1(C)CCOC(O)(c2ccc(-c3ccc(C4(O)C[N+](C)(C)CCO4)cc3)cc2)C1` (stereo not given): inactive: -7.75%.
Next, `Nc1ccncc1`: inactive: -6.43%.
For the molecule `C[C@]12CCC(=O)C=C1CC[C@@H]1[C@@H]2C(=O)C[C@]2(C)C(=O)CC[C@@H]12`, the inhibition is inactive: -8.9%.
Next, `COc1ccc(C(=O)N2CCCC2=O)cc1`: inactive: 0.79%; `O=C(O)CCCc1ccc(N(CCCl)CCCl)cc1`: inactive: -0.58%.
The figure for `Cc1cc(Cl)ccc1OCC(=O)O` is inactive: 3.97%; for `CN1C(=O)N(C)C(=O)C2(Cc3ccccc3N3CCOCC32)C1=O` (stereo not given) it is inactive: -5.65%; for `COc1cc2c3cc1Oc1cc(ccc1O)C[C@@H]1c4c(cc(OC)c(O)c4Oc4ccc(cc4)C[C@H]3N(C)CC2)CCN1C` it is inactive: 0.1%.
Consider `NNC(=O)c1ccc(Cl)cc1`, for which the inhibition is inactive: 1.77%.
For the molecule `CCNC(=S)N(C)CCc1cc2c(c(OC)c1C=C1C(=O)N(C)C(=O)N(C)C1=O)OCO2`, the inhibition was inactive: 8.23%.
For the molecule `Clc1ccc(CSC(Cn2ccnc2)c2ccc(Cl)cc2Cl)cc1` (stereo not given), the inhibition is inactive: 3.48%.
Regarding `CCCC[N+]1(C)[C@@H]2CC(OC(=O)[C@H](CO)c3ccccc3)C[C@H]1[C@@H]1O[C@@H]12` (stereo not given in full), the inhibition was inactive: -0.83%.
For `CC(CCc1ccccc1)NC(C)C(O)c1ccc(O)cc1` (stereo not given), the inhibition is inactive: -9.55%.
For the molecule `C[C@H](O)[C@H]1CC[C@H]2[C@@H]3CCC4=CC(=O)CC[C@]4(C)[C@H]3CC[C@]12C`, the inhibition was inactive: 0.91%.
`CC(C)C[C@H](NC(=O)[C@@H]1CCCN1C(=O)[C@@H](N)Cc1ccc(O)cc1)C(=O)NCC(N)=O` (H-YPLG-NH2): the inhibition is inactive: -12.4%.
The figure for `O=C1CN=C(c2ccccc2F)c2cc(Cl)ccc2N1` is inactive: -9.42%; for `C[C@]12CC[C@@H](O)C[C@@H]1CC[C@@H]1[C@@H]2CC[C@]2(C)[C@@H](O)CC[C@@H]12` it is inactive: -2.81%; for `OC1CCCCC1N1CCC(c2ccccc2)CC1` (stereo not given) it is inactive: 1.48%.
The figure for `COc1ccc2c(c1)CC1(CN2C)C(=O)NC(=O)N(CCc2ccccc2)C1=O` (stereo not given) is inactive: -15.2%; for `C[C@H]1CCC/C=C/C2C[C@H](O)CC2[C@H](O)/C=C/C(=O)O1` (stereo not given in full) it is inactive: -12.9%.
`CC(=O)OC1C2CCC1C(N1CCCC1)CC2` (stereo not given): the inhibition was inactive: -2.68%.
In the case of `CC(Cc1ccccc1)NCC(=O)Nc1cc(N(C)C)nc2ccccc12` (stereo not given), the inhibition was inactive: 5.78%.
The figure for `C[C@H]1CCCC(=O)CCC/C=C/c2cc(O)cc(O)c2C(=O)O1` is inactive: 3.77%; for `Cc1ccsc1C(=O)C1CCCN(Cc2cc3ccccc3o2)C1` (stereo not given) it is inactive: 0.42%; for `Cc1ccc(-n2c(C)cc(/C=C3/C(=O)NC(=O)N(C)C3=O)c2C)cc1` it is inactive: 38.2%.
Consider `CC(C)[N+](C)(CCC(C(N)=O)(c1ccccc1)c1ccccc1)C(C)C`, for which the inhibition was inactive: -6.47%.
The figure for `C#C[C@]1(O)CC[C@H]2[C@@H]3CCC4=CC(=O)CC[C@]4(C)[C@H]3CC[C@@]21C` is inactive: -2.67%; for `O=c1[nH]c2ccccc2n1CCCN1CCC(n2c(=O)[nH]c3cc(Cl)ccc32)CC1` it is inactive: -3.35%.
The figure for `C[C@@H]1O[C@@H](O[C@H]2C[C@@H](O)[C@]3(CO)[C@H]4[C@H](O)C[C@]5(C)[C@@H](C6COC(=O)C6)CC[C@]5(O)[C@@H]4CC[C@]3(O)C2)[C@H](O)[C@H](O)[C@H]1O` (stereo not given in full) is inactive: -9.04%.
The figure for `O=C1CCCC2=C1C(c1cccnc1)Nc1ccccc1N2` (stereo not given) is inactive: -3.96%; for `CC[C@@H]1C(=O)OC[C@@H]1Cc1cncn1C` it is inactive: -9.03% and inactive: -8.34%; for `C#CCN(C)C(C)Cc1ccccc1` (stereo not given) it is inactive: -10.3%.
With `CC12CCC3C(CC=C4CC(O)CCC43C)C1C/C(=C\c1cccc(F)c1)C2=O` (stereo not given), the inhibition is inactive: -4.03%.
The figure for `CC12CN3CC(C)(CN(C1)C31CCOCC1)C2=O` is inactive: -12.2%; for `CC12CC[C@H]3[C@@H](CCC4(O)C[C@H](O)CCC34/C=N/NC(=O)Cc3ccccc3)C1(O)CCC2C1=CC(=O)OC1` (stereo not given in full) it is inactive: -9.14%; for `CC[C@]12C=CCN3CCC4(c5cc(Br)c(OC)cc5N(C)C4[C@@](O)(C(=O)OC)[C@@H]1OC(C)=O)C32` (stereo not given in full) it is inactive: -6.46%.
Next, `C[C@]12CC[C@@H](O)C[C@@H]1CC[C@@H]1[C@@H]2CC[C@]2(C)C(=O)CC[C@@H]12`: inactive: -5.75%; `CCOC(=O)C1=C(C)OC(N)=C(C(=O)OCC)[C@@]12C(=O)N(CC(N)=O)c1ccccc12`: inactive: -12.1%; `C[N+]1(C)[C@@H]2CC[C@H]1CC(OC(=O)C(CO)c1ccccc1)C2` (stereo not given in full): inactive: 1.36%.
For the molecule `C=C1[C@@H](C)[C@H]2[C@H](Cc3ccccc3)NC(=O)[C@]23OC(=O)/C=C/[C@H](O)CCC[C@@H](C)C/C=C/[C@H]3[C@@H]1O`, the inhibition was inactive: -2.63%.
The figure for `CC/C(=C\C=C\[C@@H]1C=C[C@@H]2CCC[C@H]2[C@@H]1C(=O)c1ccc[nH]1)[C@@H]1O[C@@H]([C@@H](C)C(=O)O)CC[C@@H]1C` is inactive: 5.93%; for `CCNC(=O)[C@H]1O[C@@H](n2cnc3c(N)ncnc32)[C@H](O)[C@@H]1O` it is inactive: 3.39%.
Next, `CCn1ccnc1CN1CCCC(C(=O)c2cc(F)ccc2OC)C1` (stereo not given): inactive: -4.97%; `Cc1cccc(C)c1NC1=NCCCS1`: inactive: -1.75%.
Next, `NC(=O)CN1CCCC1=O`: inactive: -9.43%; `Cc1cc(OCc2cc(C(=O)O)oc2C)c2c3c(c(=O)oc2c1)CCCC3`: inactive: 3.39%; `O=C1NC(=O)C2(Cc3ccccc3N3CCCC32)C(=O)N1c1ccc(Cl)cc1` (stereo not given): inactive: 7.58%.
In the case of `Cc1nc2ccccc2c(=O)n1-c1ccc(C(=O)O)cc1`, the inhibition is inactive: 5.87%.
Take `Cc1c2ccncc2c(C)c2c1[nH]c1ccccc12`: the inhibition is inactive: -2.7%.
The figure for `COc1cc(/C=C2\C(=O)NC(=O)N(c3ccccc3)C2=O)c([N+](=O)[O-])cc1OC` is active: 58.1%.
As for `O=C1C(=O)c2ccccc2-c2ccccc21`, the inhibition is inactive: 29.2%.
In the case of `CN1C2CCC1CC(OC(=O)CCN1CCCC1)C2` (stereo not given), the inhibition was inactive: -6.27%.
The figure for `CCOC(=O)C(C)Oc1cc(C)cc2oc(=O)c3c(c12)CCCC3` (stereo not given) is inactive: 3.83%; for `CN1CC[C@@]23CCCC[C@@H]2[C@@H]1Cc1ccc(O)cc13` it is inactive: -8.83%.
In the case of `CCC(COC(=O)c1cc(OC)c(OC)c(OC)c1)(c1ccccc1)N(C)C` (stereo not given), the inhibition was inactive: -0.74%.
Regarding `C[N+](C)(C)Cc1ccccc1`, the inhibition was inactive: -1.49%.
As to `O=c1[nH]c(=S)n(-c2ccccc2)c(O)c1/C=N/N1CCCCC1c1cccnc1` (stereo not given), the inhibition is inactive: -7.25%.
`CC1CCC[C@H](O)CCCCCc2cc(O)cc(O)c2C(=O)O1` (stereo not given in full): the inhibition was inactive: 5.06%.
For the molecule `COc1ccc(Cc2nccc3cc(OC)c(OC)cc23)cc1OC`, the inhibition was inactive: -9.66%.
The figure for `CN1C2CCC1CC(OC(=O)c1ccc(Cl)cc1)C2` (stereo not given) is inactive: -6.11%.
Turning to `CC(C)(C)NCC(O)c1cc(Cl)c(N)c(Cl)c1` (stereo not given), the inhibition was inactive: -7.17%.
The figure for `CCOC(=O)c1cc2c(cn1)[nH]c1ccccc12` is inactive: -10.8%; for `COP(=S)(OC)SCN1C(=O)c2ccccc2C1=O` it is active: 83.3%.
The figure for `C[C@H]1CCC[C@H](O)CCCCCc2cc(O)cc(O)c2C(=O)O1` is inactive: -2.04%; for `COC1=CC(=O)OC(/C=C/c2ccccc2)C1` (stereo not given) it is inactive: -1.24%; for `Clc1ccc(C2NCCc3[nH]cnc32)cc1` (stereo not given) it is inactive: 1.77%.
Take `CC12CN3CC(C)(CN(C1)C3c1cccs1)C2O` (stereo not given): the inhibition is inactive: -4.71%.
With `CC(C)NC(C)C(=O)c1ccc2ccccc2c1` (stereo not given), the inhibition is inactive: -0.73%.
The figure for `CCN1CC2(COC(=O)c3ccccc3N)CCC(OC)C34C5CC6C(OC)CC(O)(C5C6OC)C(O)(C(OC)C23)C14` (stereo not given) is inactive: 2.67%.
Turning to `COc1ccc(OC)c([C@@H](O)[C@H](C)NC(C)(C)C)c1`, the inhibition was inactive: -2.34%.
Next, `NCCc1ccc(O)cc1`: inactive: 0.45%; `C[N+]1(C)CCN(c2ccccc2)CC1`: inactive: -0.58%; `COc1ccc2c3c([nH]c2c1)C(C)=NCC3`: inactive: -5.28%.
The figure for `CC(=O)C1=C(C)OC(N)=C(C(=O)OC(C)C)C12C(=O)Nc1ccccc12` (stereo not given) is inactive: -5.18%; for `O=S(=O)(c1ccc(F)cc1)N1CCCCC1c1cccnc1` (stereo not given) it is inactive: -1.77%.
For `[N-]=[N+]=CC(=O)OC[C@H](N)C(=O)O`, the inhibition is inactive: 0.75%.
`Fc1ccc(C(OCCN2CCCC2)c2ccc(Br)cc2)cc1` (stereo not given): the inhibition was inactive: 1.09%.
For `CCCC(C)(COC(N)=O)COC(=O)NC(C)C` (stereo not given), the inhibition is inactive: -9.71%.
As for `CN1[C@@H]2CC[C@H]1CC(OC(=O)C1C=Nc3ccccc31)C2` (stereo not given in full), the inhibition was inactive: -2.17%.
The figure for `OC(c1ccccc1)(c1ccccc1)C1CCNCC1` is inactive: -12.8%; for `C[C@]12CCC(=O)C=C1CC[C@@H]1[C@@H]2CC[C@]2(C)C(=O)CC[C@@H]12` it is inactive: -3.1%; for `COc1ccc(-c2nc3ccccc3c(=O)o2)cc1` it is inactive: 1.35%.
For `C[C@H]1OC[C@@H](C[N+](C)(C)C)O1`, the inhibition was inactive: -10.9%.
Next, `Clc1ccc(COC(Cn2ccnc2)c2ccc(Cl)cc2Cl)c(Cl)c1` (stereo not given): inactive: 4.04%; `O=C1CSC2N1CCNC21CCCCC1` (stereo not given): inactive: -3.04%; `COc1ccc(OC)c(C(O)C(C)N)c1` (stereo not given): inactive: 7.51%.
